Results on one molecule are retold here after patent publication US20220168400A1, “USE OF A MANGANESE SUPEROXIDE DISMUTASE WITH HIGH STABILITY IN THE PREVENTION OR TREATMENT OF CEREBRAL STROKE” (CARRY HEALTH BIOPHARMACEUTICALS (HANGZHOU) CO., LTD., priority 2019, published 2022).

In the series the test system is occludin, claudin-4, ZO-1 (intestinal tight junction proteins). Briefly: Western blot of intestinal tight junction proteins in MCAO mice. Type of series: in vivo. The procedure: Intestinal tissue of each mouse in each group was obtained and frozen. The frozen intestinal tissue was homogenized in a mammalian tissue lysis buffer on ice, and centrifuged at 1,4000 rpm for 15 minutes to isolate proteins. Protein concentration was determined using the BCA method. An equal amount of each intestinal tissue homogenate sample was loaded onto 12% SDS-PAGE and transferred to a polyvinylidene fluoride membrane (Millipore Corporation, Bedford, Mass., USA). The membrane was blocked with 5% skimmed milk in TBST buffer at room temperature for 60 minutes, and then incubated with the primary antibodies against occludin, claudin-4, and ZO-1 (Zona occludens 1) overnight at 4° C. The membrane was then incubated with the appropriate secondary antibody conjugated with horseradish peroxidase (Santa Cruz Biotechnology Inc, Santa Cruz, Canada) for 1 hour at 37° C., the signal was visualized using an enhanced chemiluminescence (ECL) detection system (Amersham), and the intensity of spectral band was determined by ImageJ software.
On the technique in general: A western blot detects proteins with antibodies after separation by electrophoresis.

B1: MS-SOD: manganese superoxide dismutase with high stability, gene from Thermus thermophilus HB27 expressed in E. coli; amino acid sequence SEQ ID NO: 4 (protein)
chain: MPYPFKLPDLGYPYEALEPHIDAKTMEIHHQKHHGAYVTNLNAALEKYPYLHGVEVEVLLRHLAALPQDIQTAVRNNGGGHLNHSLFWRLLTPGGAKEPVGELKKAIDEQFGGFQALKEKLTQAAMGRFGSGWAWLVKDPFGKLHVLSTPNQDNPVMEGFTPIVGIDVWEHAYYLKYQNRRADYLQAIWNVLNWDVAEEFFKKA
modifications: Amino acid sequence for MS-SOD
B1: the “expression of cecal occludin” value (MS-SOD1 group vs control group, T test P=0.018) is “lower than that of the control group”. Also, for the setting “MS-SOD1 group, cecum, compared with control group”, the “expression levels of intestinal tight junction proteins” value is “decreased”.
